Measurements taken from patent US20250186600A1, “EXCIPIENT COMPOUNDS FOR PROTEIN FORMULATIONS” (Comera Life Sciences, Inc., priority 2020, published 2025).
For at least one compound, name, drawing or mass did not settle the structure.

System: ustekinumab
Test: Stabilization at low pH, Sypro orange fluorescence (Example 45)
Conditions: excipient 5 mg/mL, ustekinumab 1 mg/mL, glycine acidification buffer pH 2.6, Sypro orange fluorescence

SMILES: Nc1ccc(C(=O)O)cc1 [Aminobenzoic acid]
- % change in stability: 43.0%
